The values below come from PMC3402478.

The chains behind the UniProt entries cited, without tags or fusion partners. Where a name states a change or a piece, a line headed by the entry shows the natural chain unless it says otherwise. Residues count along the entry.
UniProt P09629, 1-209, stated change not applied: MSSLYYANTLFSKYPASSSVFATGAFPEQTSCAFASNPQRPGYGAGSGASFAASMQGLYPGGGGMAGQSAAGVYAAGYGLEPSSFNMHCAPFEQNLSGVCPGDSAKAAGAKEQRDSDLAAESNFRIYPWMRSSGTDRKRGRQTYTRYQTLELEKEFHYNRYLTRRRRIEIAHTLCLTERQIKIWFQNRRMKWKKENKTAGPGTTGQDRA
UniProt P49639: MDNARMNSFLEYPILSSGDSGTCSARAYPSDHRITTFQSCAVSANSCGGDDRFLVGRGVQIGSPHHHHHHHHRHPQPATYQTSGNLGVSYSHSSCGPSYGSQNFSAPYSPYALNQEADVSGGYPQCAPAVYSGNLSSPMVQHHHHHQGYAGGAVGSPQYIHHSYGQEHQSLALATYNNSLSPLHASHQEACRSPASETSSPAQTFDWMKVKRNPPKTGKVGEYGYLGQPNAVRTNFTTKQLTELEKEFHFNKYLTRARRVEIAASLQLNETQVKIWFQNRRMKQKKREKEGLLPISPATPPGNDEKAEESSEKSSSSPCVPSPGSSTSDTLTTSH
UniProt P20719: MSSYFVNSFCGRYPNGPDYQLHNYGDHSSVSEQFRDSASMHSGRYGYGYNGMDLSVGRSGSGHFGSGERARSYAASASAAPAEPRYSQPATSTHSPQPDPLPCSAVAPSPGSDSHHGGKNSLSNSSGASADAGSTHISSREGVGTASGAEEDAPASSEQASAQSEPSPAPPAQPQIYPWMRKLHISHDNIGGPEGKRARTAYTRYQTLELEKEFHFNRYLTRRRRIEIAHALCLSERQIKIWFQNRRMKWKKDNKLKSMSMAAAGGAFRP
UniProt P31268: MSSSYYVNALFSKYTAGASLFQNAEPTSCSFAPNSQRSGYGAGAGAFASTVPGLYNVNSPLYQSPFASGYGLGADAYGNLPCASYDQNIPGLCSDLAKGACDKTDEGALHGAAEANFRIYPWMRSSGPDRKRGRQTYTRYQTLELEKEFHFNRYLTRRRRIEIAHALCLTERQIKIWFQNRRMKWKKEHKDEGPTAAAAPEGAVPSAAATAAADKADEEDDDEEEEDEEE
UniProt P17509, whole entry K221E: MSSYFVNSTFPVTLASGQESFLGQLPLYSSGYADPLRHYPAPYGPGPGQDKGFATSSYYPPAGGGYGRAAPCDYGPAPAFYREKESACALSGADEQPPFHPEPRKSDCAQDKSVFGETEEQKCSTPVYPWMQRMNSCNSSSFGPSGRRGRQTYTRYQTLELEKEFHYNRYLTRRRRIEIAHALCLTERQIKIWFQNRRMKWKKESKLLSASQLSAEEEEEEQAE
UniProt P09630: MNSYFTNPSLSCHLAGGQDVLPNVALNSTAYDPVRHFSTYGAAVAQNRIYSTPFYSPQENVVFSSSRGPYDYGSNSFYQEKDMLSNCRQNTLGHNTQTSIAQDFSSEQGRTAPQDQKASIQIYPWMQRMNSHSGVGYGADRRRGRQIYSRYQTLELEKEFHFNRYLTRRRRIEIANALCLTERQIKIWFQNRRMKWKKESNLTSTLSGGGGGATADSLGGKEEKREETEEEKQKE

The exact form of at least one protein or probe is not confirmed. For some of these results: A negative result means that nothing was seen under these conditions. For some of these results: A weaker result is weaker than the reference pair of the same experiment. For some of these results: Results from cells or extracts need not show a direct contact. For some of these results: At least one verdict was read from the data and is not stated in words by the source.

One data set deals with GST-HOXB7 (UniProt P09629). Briefly: EMSA. Particulars: + PARP-1 and NAD+ (poly(ADP-ribosyl)ation); EMSA: 50 mM Tris-HCl pH 7.5, 50 mM NaCl, 1 mM MgCl2, 0.5 mM DTT, 4% glycerol, 0.5 mM EDTA, 0.25 mg/ml poly(dI-dC), 20 min, gel at room temperature; recombinant protein; protein details: GST; label: 32P.
In a further data set the test system is GST. Briefly: EMSA. Particulars: EMSA: 50 mM Tris-HCl pH 7.5, 50 mM NaCl, 1 mM MgCl2, 0.5 mM DTT, 4% glycerol, 0.5 mM EDTA, 0.25 mg/ml poly(dI-dC), 20 min, gel at room temperature; recombinant protein; label: 32P. (In general: In EMSA bound probe runs differently from free probe, usually more slowly.)
The target of a further data set is FLAG-HOXA1 (UniProt P49639). Briefly: pull-down (ONP). The note with it: with or without PARP-1, not suppressed; ONP: 60 mM KCl, 12 mM HEPES pH 7.9, 4 mM Tris-HCl, 5% glycerol, 0.5 mM EDTA, 1 mM DTT, 4 C, 3 h; protein in a lysate after overexpression; protein details: N-terminal FLAG; label: 5' biotin on S1.
A further data set deals with FLAG-HOXA5 (UniProt P20719). The experiment in a line: pull-down (ONP). Particulars: with or without PARP-1, not suppressed; ONP: 60 mM KCl, 12 mM HEPES pH 7.9, 4 mM Tris-HCl, 5% glycerol, 0.5 mM EDTA, 1 mM DTT, 4 C, 3 h; protein in a lysate after overexpression; protein details: N-terminal FLAG; label: 5' biotin on S1.
Another data set concerns the target FLAG-HOXA7 (UniProt P31268). The experiment in a line: pull-down (ONP). The note with it: ONP: 60 mM KCl, 12 mM HEPES pH 7.9, 4 mM Tris-HCl, 5% glycerol, 0.5 mM EDTA, 1 mM DTT, 4 C, 3 h, protein in a lysate after overexpression, protein details: N-terminal FLAG, label: 5' biotin on S1.
The target of a further data set is FLAG-HOXB6 (UniProt P17509). Briefly: pull-down (ONP). Particulars: with or without PARP-1, not suppressed; ONP: 60 mM KCl, 12 mM HEPES pH 7.9, 4 mM Tris-HCl, 5% glycerol, 0.5 mM EDTA, 1 mM DTT, 4 C, 3 h; protein in a lysate after overexpression; protein details: N-terminal FLAG; label: 5' biotin on S1.
In a further data set the target is FLAG-HOXB6 K221E (UniProt P17509). Briefly: pull-down (ONP). The note with it: ONP: 60 mM KCl, 12 mM HEPES pH 7.9, 4 mM Tris-HCl, 5% glycerol, 0.5 mM EDTA, 1 mM DTT, 4 C, 3 h, protein in a lysate after overexpression, protein details: FLAG, label: 5' biotin on S1.
A further data set concerns the target FLAG-HOXB7 (UniProt P09629). Briefly: pull-down (ONP). Particulars: ONP: 60 mM KCl, 12 mM HEPES pH 7.9, 4 mM Tris-HCl, 5% glycerol, 0.5 mM EDTA, 1 mM DTT, 4 C, 3 h, protein in a lysate after overexpression, protein details: FLAG, label: 5' biotin on S1.
A further data set addresses FLAG-HOXC6 (UniProt P09630). The experiment in a line: pull-down (ONP). The note with it: with or without PARP-1, not suppressed; ONP: 60 mM KCl, 12 mM HEPES pH 7.9, 4 mM Tris-HCl, 5% glycerol, 0.5 mM EDTA, 1 mM DTT, 4 C, 3 h; protein in a lysate after overexpression; protein details: N-terminal FLAG; label: 5' biotin on S1.
A further data set has as its target HOXB7deltaGlu (UniProt P09629). Briefly: pull-down (ONP). The note with it: ONP: 60 mM KCl, 12 mM HEPES pH 7.9, 4 mM Tris-HCl, 5% glycerol, 0.5 mM EDTA, 1 mM DTT, 4 C, 3 h, protein in a lysate after overexpression, protein details: FLAG, label: 5' biotin on S1.

“AAATATCAATTAAATCTTAATTATAA (double strand) [HBS EMSA probe]”: the binding result in the data set with GST-HOXB7 was “binds more weakly”; in the data set on GST it was “no binding”.
For “AAATATCAATTAAATCTTAATTATAA (double strand) [biotin-HBS]”, the binding result was “binds” with FLAG-HOXA1; “binds” with FLAG-HOXA5; “binds” in the data set with FLAG-HOXA7 (PARP-1 overexpressed + DPQ, partially restored); “binds more weakly” in the data set with FLAG-HOXA7 (PARP-1 overexpressed); “binds” in the data set with FLAG-HOXA7 (no PARP-1 overexpression); “binds” in the data set with FLAG-HOXB6. For the same sequence, the binding result with FLAG-HOXB6 K221E (PARP-1 overexpressed) is “binds more weakly”; with FLAG-HOXB6 K221E (no PARP-1 overexpression) it was “binds”; in the data set with FLAG-HOXB7 (PARP-1 E988A overexpressed, no suppression), “binds”; in the data set with FLAG-HOXB7 (PARP-1 deltaZF1 overexpressed, no suppression) it was “binds”; in the data set with FLAG-HOXB7 (PARP-1 overexpressed + DPQ, binding restored), “binds”; in the data set with FLAG-HOXB7 (PARP-1 overexpressed + PARG, binding restored), “binds”. Moreover, the binding result in the data set with FLAG-HOXB7 (PARP-1 overexpressed) is “binds more weakly”; with FLAG-HOXB7 (no PARP-1 overexpression, DPQ increases binding) it was “binds”; with FLAG-HOXC6, “binds”; in the data set with HOXB7deltaGlu (PARP-1 overexpressed, suppression abolished), “binds”; with HOXB7deltaGlu (no PARP-1 overexpression), “binds”.
